Data source: PubChem BioAssay AID1259254 (NCATS, 2017)
Test: 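Finding genes that stop cells copying their DNA twice in one cycle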 (primary screen). Cell system: human HCT116 colorectal cancer cells. Knock-down reagent: single siRNA against human genes. Duration: 3 days. Measured: 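Nuclei stained with Hoechst and imaged; cell-cycle phase assigned by DNA content; G2 share scaled per plate, non-targeting siRNA 0%, GMNN siRNA 100%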. Scale: G2 robust z-score and G2 cells, % of GMNN control: higher = more G2 cells, more excess DNA replication; raw share of cells in G2: higher = larger share of cells with G2 DNA content. Active means: 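Active siRNAs have a G2 robust z of 5 or more median absolute deviations over the median, which in these data means about 38% or higher of GMNN control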.
The deposit covers about 59,000 reagents; below is an unselected part. Over the whole deposit, about 1,550 (2.6%) got an active call. 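G2 share is only a proxy for re-replication; each gene was hit by three separate siRNAs, and active genes were retested.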 The raw values are shown without normalisation. Unmarked entries are inactive. The numbers tell different reagents against one gene apart. Not given: the amount of reagent.

Gene	reagent no.	G2 robust z-score	G2 cells, % of GMNN control	raw share of cells in G2 (%)
OTOG (otogelin)	1	1.89	16.3	11.3
OTOG (otogelin)	2	-0.186	1.66	6.62
OTOG (otogelin)	3	0.478	6.33	6.6
RPS25P6 (ribosomal protein S25 pseudogene 6)	1	0.65	7.54	6.55
RPS25P6 (ribosomal protein S25 pseudogene 6)	2	0.555	6.87	6.24
RPS25P6 (ribosomal protein S25 pseudogene 6)	3	-0.204	1.53	5.43
SQSTM1 (sequestosome 1)	1	0.00553	3.01	6.46
SQSTM1 (sequestosome 1)	2	1.84	15.9	10.2
SQSTM1 (sequestosome 1)	3	1.39	12.8	7.86
SEC24B (SEC24 homolog B, COPII component)	1	0.336	5.33	8.01
SEC24B (SEC24 homolog B, COPII component)	2	-0.4	0.153	3.89
SEC24B (SEC24 homolog B, COPII component)	3	0.414	5.88	8.8

Continued, starting with the last 2 of the part before.
Gene	reagent no.	G2 robust z-score	G2 cells, % of GMNN control	raw share of cells in G2 (%)
SEC24B (SEC24 homolog B, COPII component)	2	-0.4	0.153	3.89
SEC24B (SEC24 homolog B, COPII component)	3	0.414	5.88	8.8
SEPSECS	1	1.32	12.2	8.53
SEPSECS	2	-0.174	1.75	5.21
SEPSECS	3	-0.78	-2.52	2.46
DDI2 (DDI proteasomal shuttling factor 2)	1	0.684	7.78	6.73
DDI2 (DDI proteasomal shuttling factor 2)	2	-0.415	0.0478	4.99
DDI2 (DDI proteasomal shuttling factor 2)	3	-0.189	1.64	5.3
DDI2 (DDI proteasomal shuttling factor 2)	4	-1.05	-4.41	3.73
DDI2 (DDI proteasomal shuttling factor 2)	5	0.86	9.01	7.44
DDI2 (DDI proteasomal shuttling factor 2)	6	3.98	31	15.8
LINC02458 (long independently transcribed non-coding RNA 2458)	1	-0.346	0.533	3.74
LINC02458 (long independently transcribed non-coding RNA 2458)	2	-0.905	-3.4	1.67
LINC02458 (long independently transcribed non-coding RNA 2458)	3	-0.601	-1.26	3.12
INVS (inversin)	1	0.502	6.5	6.34
INVS (inversin)	2	-0.296	0.883	4.88
INVS (inversin)	3	-1.01	-4.12	1.95
MIPOL1 (mirror-image polydactyly 1)	1	0.136	3.93	5.14
MIPOL1 (mirror-image polydactyly 1)	2	2.23	18.7	8.69
MIPOL1 (mirror-image polydactyly 1)	3	3.28	26	12.1
